In PubChem BioAssay AID328 (DTP/NCI, 2004) one finds T/C and survivor count data, which are given here for 21 compounds.

This assay relates to BDF1 mice, P388 leukemia ip, median survival T/C. Description: NCI In Vivo Anticancer Drug Screen. Data for tumor model P388 Leukemia (intraperitoneal) in B6D2F1 (BDF1) mice. The conditions noted are these: T/C endpoint: median survival time, higher T/C = longer survival. An outline of the steps:
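Read-out is survival of treated animals expressed relative to the vehicle group, as a T/C ratio.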

[1] abbreviates: dose: 200.0 mg/kg/injection, schedule: Q01DX009 (ip), vehicle: saline.
The mark [2] stands for this setting: dose: 100.0 mg/kg/injection, schedule: Q01DX009 (ip), vehicle: saline with Tween-80.
[3] abbreviates: dose: 150.0 mg/kg/injection, schedule: Q04DX003 (ip), vehicle: saline with Tween-80.
[4] abbreviates: dose: 50.0 mg/kg/injection, schedule: Q04DX003 (ip), vehicle: saline with Tween-80.
Where [5] appears, read: dose: 400.0 mg/kg/injection, schedule: Q01DX009 (ip), vehicle: saline with Tween-80.
Where [6] appears, read: dose: 200.0 mg/kg/injection, schedule: Q01DX009 (ip), vehicle: Klucel (hydroxypropylcellulose) (HPC).

Each structure is given as a SMILES string. The list does not hold the whole screen: it is rich in T/C values a quarter to a half above the control, in often repeated tests (any T/C) and in doses without a T/C. Other doses and runs of a compound stand elsewhere. T/C: endpoint of the treated group in % of that of the vehicle group. Some doses have a count of surviving animals in place of a T/C: the source holds a T/C of zero for them, seemingly a mark for toxic or unscored doses. Some doses without a T/C left all or most animals alive at the check, yet need not have been tolerated: the source hardly ever lists a survival T/C far under the control, and the zero likely stands for such cases as well. Survivors were counted at the toxicity check, usually on the fifth day, unless a day is given; later deaths do not show. Schedules are NCI's codes, taken here to give the interval after Q, in days (D) or hours (H), and the number of doses after X. Some entries hold several experiments; the results are listed from low to high. Where survival is the endpoint, this PubChem deposit counts one and a half times the control or more as active, and values a quarter to a half above the control carry no call in these data; other NCI protocols may use other cut-offs. Some T/C values carry the count of animals alive at the toxicity check (mostly the fifth day); where none is given, no animal had died by that day.

As for `O=c1c(O)c(-c2ccc(O)c(O)c2)oc2cc(O)cc(O)c12`, the T/C (dose: 60.0 mg/kg/injection, schedule: Q01DX009 (ip), vehicle: saline) is 127 % of control; the T/C under setting [1] was 132 and 132 % of control [5 of 6 alive]. For the same compound, the survivor count by setting is: (dose: 300.0 mg/kg/injection, schedule: Q01DX009 (ip), vehicle: saline) 1 of 6; (dose: 400.0 mg/kg/injection, schedule: Q01DX009 (ip), vehicle: saline) 6 of 6; (dose: 800.0 mg/kg/injection, schedule: Q01DX009 (ip), vehicle: saline) 0 of 6; (dose: 1600.0 mg/kg/injection, schedule: Q01DX009 (ip), vehicle: saline) 0 of 6.
As for `C[C@@H]1C[C@@H]([C@@H](CC2CC(=O)NC(=O)C2)OC(=O)CC(=O)c2ccccc2)C(=O)[C@@H](C)C1`, the T/C (dose: 16.5 mg/kg/injection, schedule: Q01DX009 (ip), vehicle: saline with Tween-80) was 140 % of control; the T/C (dose: 25.0 mg/kg/injection, schedule: Q01DX009 (ip), vehicle: saline with Tween-80) is 131 % of control; the T/C (dose: 66.0 mg/kg/injection, schedule: Q04DX003 (ip), vehicle: saline with Tween-80) is 131 and 140 % of control; the T/C (dose: 100.0 mg/kg/injection, schedule: Q04DX003 (ip), vehicle: saline with Tween-80) is recorded as 117, 122, 140, 145 % of control; the T/C under setting [3] is 140 % of control. For the same compound, the survivor count by setting is: under setting [2], 5 of 6; under setting [3], 4 of 6; (dose: 200.0 mg/kg/injection, schedule: Q04DX003 (ip), vehicle: saline with Tween-80) 6 of 6; (dose: 400.0 mg/kg/injection, schedule: Q04DX003 (ip), vehicle: saline with Tween-80) 1 of 6.
As to `CCCCN(C)N=Nc1c(C(N)=O)n[nH]c1C`, the T/C (dose: 33.0 mg/kg/injection, schedule: Q01DX009 (ip), vehicle: saline with Tween-80) is 136 % of control [5 of 6 alive] and the T/C (dose: 50.0 mg/kg/injection, schedule: Q01DX009 (ip), vehicle: saline with Tween-80) is 140 % of control. Besides, the survivor count (dose: 75.0 mg/kg/injection, schedule: Q01DX009 (ip), vehicle: saline with Tween-80) is given as 5 of 6; the survivor count under setting [2] is listed as 5 of 6; the survivor count (dose: 300.0 mg/kg/injection, schedule: Q04DX003 (ip), vehicle: Klucel (hydroxypropylcellulose) (HPC)) is 2 of 6.
Regarding `Cc1ccc2c(ccc3c[n+]4ccccc4c(C)c32)c1`, the T/C runs as follows: (dose: 22.0 mg/kg/injection, schedule: Q04DX003 (ip), vehicle: saline with Tween-80) 136 % of control; under setting [4], 136 % of control. Also, the survivor count under setting [4] is 6 of 6 and the survivor count (dose: 75.0 mg/kg/injection, schedule: Q04DX003 (ip), vehicle: saline with Tween-80) is 5 of 6.
For the compound `O=C(NC1CCCCC1)O/N=C/c1ccccn1`, the survivor count (dose: 200.0 mg/kg/injection, schedule: Q01DX001 (ip), vehicle: other) is on record as 5 of 6.
With `Nc1nc(N)c2cc(N3CCCC3c3ccc(Cl)c(Cl)c3)ccc2n1` (stereo not given), the survivor count runs as follows: (dose: 12.5 mg/kg/injection, schedule: Q01DX009 (ip), vehicle: water) 4 of 6; (dose: 25.0 mg/kg/injection, schedule: Q01DX009 (ip), vehicle: water) 0 of 6.
For the compound `O=C(O)C(CSC(c1ccccc1)(c1ccccc1)c1ccccc1)N=Cc1cccs1` (stereo not given), where the note is “dose: 4.8 mg/kg/injection, schedule: Q01DX009 (ip), vehicle: saline”, the T/C is 145 % of control. In addition, for the setting “dose: 150.0 mg/kg/injection, schedule: Q01DX009 (ip), vehicle: saline”, the survivor count is on record as 4 of 6.
On to `CC(/C=N/N=C(N)N)=N\NC(N)=S`, for which the survivor count under setting [5] was 0 of 6.
`CC(=O)c1ccc2ccccc2c1O`: the T/C is 127 % of control (dose: 265.0 mg/kg/injection, schedule: Q01DX009 (ip), vehicle: saline with Tween-80) and 137 % of control under setting [5].
Take `C/C(=N\[N+](C)(C)C)c1cccc(C)n1`: the T/C (dose: 50.0 mg/kg/injection, schedule: Q04DX003 (ip), vehicle: saline) was 133 % of control. For the setting “dose: 100.0 mg/kg/injection, schedule: Q01DX009 (ip), vehicle: saline”, the survivor count is on record as 5 of 6.
On to `O=C1C=CC(=O)C(c2ccccc2)=C1`, for which the survivor count runs as follows: (dose: 100.0 mg/kg/injection, schedule: Q01DX001 (ip), vehicle: Klucel (hydroxypropylcellulose) (HPC)) 0 of 6; (dose: 200.0 mg/kg/injection, schedule: Q01DX001 (ip), vehicle: Klucel (hydroxypropylcellulose) (HPC)) 0 of 6; (dose: 400.0 mg/kg/injection, schedule: Q01DX001 (ip), vehicle: Klucel (hydroxypropylcellulose) (HPC)) 0 of 6.
In the case of `N#CCC(N)=C(C#N)C#N`, the survivor count runs as follows: (dose: 200.0 mg/kg/injection, schedule: Q04DX003 (ip), vehicle: Klucel (hydroxypropylcellulose) (HPC)) 0 of 6; (dose: 400.0 mg/kg/injection, schedule: Q04DX003 (ip), vehicle: Klucel (hydroxypropylcellulose) (HPC)) 0 of 6.
Consider `CC1CC=C(C2CC(C)CC(N(C)C)C2=N)CC1` (stereo not given), for which the survivor count (dose: 100.0 mg/kg/injection, schedule: Q01DX009 (sc), vehicle: olive oil, sesame oil, peanut oil) is reported as 6 of 6; the survivor count (dose: 200.0 mg/kg/injection, schedule: Q01DX009 (sc), vehicle: olive oil, sesame oil, peanut oil) is 5 of 6; the survivor count (dose: 400.0 mg/kg/injection, schedule: Q01DX009 (sc), vehicle: olive oil, sesame oil, peanut oil) is on record as 0 of 6.
For `C[C@]12C=CC(=O)C=C1CC[C@H]1[C@@H]3C[C@@H](O)[C@](O)(C(=O)CO)[C@@]3(C)C[C@H](O)[C@@]12F`, the T/C was 125 % of control (dose: 100.0 mg/kg/injection, schedule: Q01DX009 (ip), vehicle: Klucel (hydroxypropylcellulose) (HPC)) and 125 % of control under setting [6]. Also, the survivor count by setting is: (dose: 132.0 mg/kg/injection, schedule: Q01DX009 (ip), vehicle: Klucel (hydroxypropylcellulose) (HPC)) 6 of 6; under setting [6], 4 of 6; (dose: 300.0 mg/kg/injection, schedule: Q01DX009 (ip), vehicle: Klucel (hydroxypropylcellulose) (HPC)) 2 of 6 and 3 of 6.
As for `CCCCCCCCCCCCCCCC[N+]1(C)CCN(SN2CC[N+](C)(CCCCCCCCCCCCCCCC)CC2)CC1`, the survivor count was 4 of 6 under setting [1] and 2 of 6 (dose: 400.0 mg/kg/injection, schedule: Q04DX003 (ip), vehicle: saline).
For the compound `C1O[C@@H]1[C@@H]1CO1`, the T/C (dose: 200.0 mg/kg/injection, schedule: Q01DX010 (ip), vehicle: water) is 127 % of control. Also, the survivor count is, setting by setting: (dose: 503.0 mg/kg/injection, schedule: Q01DX010 (ip), vehicle: water) 6 of 6; (dose: 750.0 mg/kg/injection, schedule: Q01DX010 (ip), vehicle: water) 6 of 6.
Turning to `COC(OC)C1=C(Cl)C(Cl)=C(Cl)/C1=N\Nc1ccccc1`, where the note is “dose: 400.0 mg/kg/injection, schedule: Q01DX001 (ip), vehicle: saline with Tween-80”, the survivor count is 1 of 6.
On to `CC1C[N+](C)(C)NC1=O` (stereo not given), for which the survivor count (dose: 100.0 mg/kg/injection, schedule: Q01DX001 (ip), vehicle: saline) was 6 of 6.
`S=C(Nc1ccccc1)N(C1CCCCC1)C1CCCCC1`: the T/C by setting is: under setting [2], 135 % of control; under setting [5], 130 % of control.
Turning to `CN(C)CC1CCC/C(=C\C=C\c2ccccc2)C1=O` (stereo not given), the survivor count (dose: 8.75 mg/kg/injection, schedule: Q01DX009 (ip), vehicle: Klucel (hydroxypropylcellulose) (HPC)) is 6 of 6; the survivor count (dose: 160.0 mg/kg/injection, schedule: Q04DX003 (ip), vehicle: Klucel (hydroxypropylcellulose) (HPC)) is on record as 3 of 6; the survivor count (dose: 240.0 mg/kg/injection, schedule: Q04DX003 (ip), vehicle: Klucel (hydroxypropylcellulose) (HPC)) is given as 0 of 6.
For the compound `ClC1OC(Cl)C(Cl)OC1Cl` (stereo not given), where the note is “dose: 25.0 mg/kg/injection, schedule: Q01DX009 (ip), vehicle: Klucel (hydroxypropylcellulose) (HPC)”, the survivor count is recorded as 6 of 6.
